Source: PubChem BioAssay AID2685 (National Center for Advancing Translational Sciences (NCATS), 2010)
The list shows a part of the results. Shown are side measurements of this screen, not its main read-out; they come without a call. Most of these compounds were active or inconclusive in the main read-out, so they are no random draw. Potencies come from curve fits of mixed quality, noted in brackets.

Experiment: qHTS Assay for Lipid Storage Modulators in Drosophila S3 Cells;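 on cell number change: cells counted by Cell Tracker Red CMTPX staining in the red channel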
Details: BODIPY lipid droplet fluorescence, 18-24 h; for cell number change: measured here: cell count max response, cells fed with added oleic acid
Summary of the method: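 Drosophila S3 cells got compounds at several concentrations plus oleic acid (400 uM solution). Laser-scanning cytometry with 488 nm excitation read lipid droplets at 500-530 nm and cells at 575-640 nm. Percent activity was relative to 20 uM Triacsin C.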

[1] = measured here: lipid fluorescence (Fed channel) AC50, cells fed with added oleic acid
[2] = measured here: cell number channel AC50, cells fed with added oleic acid

Row | Compound | cell number change | AC50 [1] | AC50 [2]
1 | O=C(c1ccc2ncsc2c1)N1CCN(c2nc3ccccc3s2)CC1 | 6.02% | 1.64 µM [rising, partial curve] | 
2 | O=C(Nc1ccccc1Br)C(=O)N1CCCC1 | 23.4% | 16.4 µM [rising, single point] | 
3 | Cc1ccc(S(=O)(=O)c2ccc([N+](=O)[O-])cn2)cc1 | -71.7% | 2.91 µM [falling, full curve] | 4.61 µM [falling, full curve]
4 | CSCC[C@H](NC(=O)c1ccc(Br)o1)c1nnc2ccccn12 | 12.5% |  | 
5 | COc1cc2c(cc1OC)C(c1cccc(Br)c1)CC(=O)N2 (configuration not stated) | -18.3% |  | 
6 | COc1cccc(-c2cc(C(=O)N3C(C)CCCC3C)no2)c1 (configuration not stated) | -4.34% |  | 
7 | O=C(O)C1CCCN1c1ncccc1[N+](=O)[O-] (configuration not stated) | 20.8% | 2.31 µM [falling, partial curve] | 2.91 µM [falling, single point]
8 | CC1=CC2=NC(=O)/C(=C\c3ccc(-c4cccc(Cl)c4)o3)C(=N)N2O1 | 2.25% | 4.11 µM [rising, partial curve, poor fit] | 
9 | CN(C)c1ccnc(N(Cc2ccccc2)Cc2ccccc2)c1C#N |  | 5.8 µM [falling, single point] | 
10 | CC(C)(C)c1nc2ccccc2c(=O)n1N1C(=O)c2ccccc2C1=O | 8.68% | 0.164 µM [rising, full curve, poor fit] | 
11 | Cc1ccc(C(=O)NCCNC(=O)COc2ccc(C)c(C)c2)cn1 | 20.2% | 29.1 µM [rising, partial curve] | 
12 | CCOC(=O)c1ccc(NC(=O)Cn2nc(C)c3ccccc3c2=O)cc1 | 9.85% | 0.116 µM [rising, full curve, poor fit] | 
13 | Cc1cc(=O)oc2c(C)c(OC(C)C(=O)NCCN3CCOCC3)ccc12 (configuration not stated) | -4.01% |  | 
14 | CN(C(=O)COC(=O)c1cc([N+](=O)[O-])ccc1N1CCCC1)C1CCS(=O)(=O)C1 (configuration not stated) | 24.8% | 2.06 µM [falling, partial curve] | 
15 | CCN(CC)S(=O)(=O)c1ccc2c(c1)nc(CCC(=O)OCC(=O)Nc1cc(Cl)cc(Cl)c1)n2C | 4.37% | 2.91 µM [rising, full curve] | 
16 | Nc1nc2c(s1)CC(c1ccccc1)CC2 (configuration not stated) | -14.4% | 6.51 µM [falling, single point] | 0.731 µM [falling, full curve]
17 | Cc1ccc(NC(=O)C(C)N=C2NS(=O)(=O)c3ccccc32)cc1 (configuration not stated) | -15% |  | 
18 | CC(C)c1onc(C(=O)N2CCN(Cc3ccccc3)CC2)c1[N+](=O)[O-] | -0.624% | 0.13 µM [rising, partial curve, poor fit] | 
19 | COc1ccc(C)cc1NC(=O)CSc1nnc(CC(=O)Nc2cccc(C(F)(F)F)c2)n1C | 11.9% | 0.58 µM [rising, single point] | 
20 | CC(=O)Nc1ccc(/C=C(\C#N)C(=O)NC2CCCCC2C)cc1 (configuration not stated) | -63.5% | 32.6 µM [falling, partial curve, poor fit] | 

3 compounds from above, showing only AC50 [1].
Row	Compound	AC50 [1]
18	CC(C)c1onc(C(=O)N2CCN(Cc3ccccc3)CC2)c1[N+](=O)[O-]	0.13 µM [rising, partial curve, poor fit]
19	COc1ccc(C)cc1NC(=O)CSc1nnc(CC(=O)Nc2cccc(C(F)(F)F)c2)n1C	0.58 µM [rising, single point]
20	CC(=O)Nc1ccc(/C=C(\C#N)C(=O)NC2CCCCC2C)cc1 (configuration not stated)	32.6 µM [falling, partial curve, poor fit]

The listing continues.

Row | Compound | cell number change | AC50 [1] | AC50 [2]
21 | O=C(Nc1ccc(F)c(Cl)c1)c1ccc2c(c1)OCO2 | -19.2% |  | 
22 | Cc1cc(C)n(Cc2ccc(C(=O)Nc3cccc(Br)c3)o2)n1 | -32.3% | 29.1 µM [falling, single point] | 29.1 µM [falling, single point]
23 | COC(=O)CN1C(=O)c2cccc3cccc1c23 | -18.8% | 0.164 µM [rising, partial curve, poor fit] | 
24 | Cn1c(-c2ccco2)n[nH]c1=S | -24.6% | 4.11 µM [falling, full curve, poor fit] | 2.59 µM [falling, full curve, poor fit]
25 | Cc1nn(-c2ccccc2)c(C)c1C(=O)NCc1ccccc1F | -8.73% | 29.1 µM [rising, single point] | 
26 | CC12C(=O)N(c3cccc(OC(=O)c4ccco4)c3)C(=O)C1C1c3ccccc3C2c2ccccc21 (configuration not stated) | 13% | 23.1 µM [rising, partial curve] | 
27 | CC(=O)OC1CC2(C)/C(=N\O)CCC2C2CCc3cc(O)ccc3C12 (configuration not stated) | 11.7% | 9.2 µM [rising, partial curve, poor fit] | 
28 | CC1(C(=O)N2CCN(c3ccc([N+](=O)[O-])cc3)CC2)CC1(Cl)Cl (configuration not stated) | 4.21% | 16.4 µM [falling, partial curve] | 
29 | CCCC(c1nnnn1CCC(C)C)N1CCC(C(N)=O)CC1 (configuration not stated) | -19.5% |  | 
30 | O=C1CN(C(=O)COc2ccc(F)cc2Br)c2ccccc2N1 | -8.6% |  | 
31 | CC1=CCC2C(=O)N(c3nc4ccccc4n3C)C(=O)C2C1 (configuration not stated) | 34.7% | 29.1 µM [rising, single point] | 29.1 µM [rising, single point]
32 | Cc1cc(C(=O)N2CCc3ccccc3C2)on1 | 24.3% |  | 
33 | O=C(COC(=O)/C=C/c1ccc(Br)o1)Nc1ccccc1F | 164% | 16.4 µM [rising, partial curve] | 
34 | COc1ccc(/C=N/NC(=O)c2cccc(C(=O)N/N=C/c3ccc(OC)c(OC)c3)n2)cc1OC | -5.56% | 0.103 µM [rising, full curve, poor fit] | 
35 | Cn1c(SCc2ccc(Br)cc2)nnc1-c1ccccn1 | 41.3% | 10.3 µM [rising, partial curve, poor fit] | 2.91 µM [rising, full curve]
36 | COc1ccc(N2CCN(C(=O)c3ccc(C)c(NC(=O)c4ccco4)c3)CC2)cc1 | 17% | 18.4 µM [rising, single point] | 
37 | CC1CCCC(C)N1C(=O)CSCc1ccc(Cl)cc1 (configuration not stated) | -7.07% | 0.13 µM [falling, full curve, poor fit] | 0.164 µM [falling, full curve]
38 | COc1ccc(C2c3c(oc4ccccc4c3=O)C(=O)N2CC2CCCO2)cc1 (configuration not stated) | 53.1% | 0.651 µM [falling, single point] | 29.1 µM [rising, single point]
39 | O=Cc1c[nH]c2ccc(OCc3ccccc3)cc12 | -12.2% | 29.1 µM [rising, single point] | 
